According to EP0890570A2, “Tertiary alkyl primary amines and process for preparing the same” (ROHM AND HAAS COMPANY, priority 1997, dated 1999):

assay: Diesel fuel oxidative stability test (Modified ASTM 2274, 40 hours); conditions: additive 15 ppm in diesel oil, untreated fuel 2.5
Description: Fuel composition samples of diesel oil (Gulf Coast - 0.4% Sulfur, Howell) containing various concentrations of additives as indicated in Table m were prepared. Diesel Fuel oxidative stability tests were performed using a Modified ASTM 2274 Test Method. The ASTM method was modified by changing the test duration from 16 hours to 40 hours. The oxidation stability of the fuel compositions is shown in Table III as the amount of insolubles present.

| Compound | Insolubles mg/100 mL [mg/100 mL] |
| --- | --- |
| CCCCCCCCCN [n-nonylamine] | 1.9 |
| CC(C)(C)CC(C)(C)N [Primene® TOA, t-octyl primary amine] | 0.4 |
| CCCCC(CC)CN (stereo not shown) [2-ethylhexylamine] | 2.2 |
| CC(C)CCCCCCN [iso-nonylamine] | 2.1 |
